Source: PubChem BioAssay AID316 (DTP/NCI, 2004)
The list does not hold the whole screen: it is rich in T/C values a quarter to a half above the control, in often repeated tests (any T/C) and in doses without a T/C. Other doses and runs of a compound stand elsewhere. T/C: endpoint of the treated group in % of that of the vehicle group. Some doses have a count of surviving animals in place of a T/C: the source holds a T/C of zero for them, seemingly a mark for toxic or unscored doses. Some survivor counts are full or nearly so, which does not show that the dose was tolerated: the source hardly ever lists a survival T/C far under the control, and the zero likely stands for such cases as well. Counts of survivors are from the toxicity check (mostly the fifth day) where no day follows; animals may have died later. Schedule codes are those of the source, taken here to give the interval after Q, in days (D) or hours (H), and the number of doses after X. For survival time, this PubChem deposit counts one and a half times the control or more as active, and values a quarter to a half above the control carry no call in these data; other NCI protocols may use other cut-offs.

Tested on: P1534 leukemia ip, CD2F1 mice, survival T/C
Assay: NCI In Vivo Anticancer Drug Screen. Data for tumor model P1534 Leukemia (intraperitoneal) in CD2F1 (CDF1) mice
Conditions: T/C endpoint: mean survival time, schedule: Q01DX010 (ip), vehicle: saline, higher T/C = longer survival
Procedure: The antitumor activity of compounds was measured in mice bearing transplantable tumors. Survival or tumor size were measured and the results are expressed as the measurement made in the treated group (T) divided by the measurement made in the vehicle treated control group (C). The tumor model used in this assay is P1534 Leukemia (intraperitoneal) in CD2F1 (CDF1) mice

Question: How did the T/C (dose: 20.0 mg/kg/injection) turn out when `C[C@@H]1C[C@@H]([C@H](O)CC2CC(=O)NC(=O)C2)C(=O)[C@@H](C)C1` was run?
Answer: 125 % of control

Question: What about the T/C (dose: 40.0 mg/kg/injection) of the same compound?
Answer: 125 % of control

Question: Which survivor count (dose: 250.0 mg/kg/injection) does the source give for `CC(=O)c1ccc[nH]1` here?
Answer: 6 of 6

Question: And the survivor count (dose: 500.0 mg/kg/injection)?
Answer: 6 of 6

Question: For `CN1CC[C@]23c4c5ccc(O)c4O[C@H]2C(=O)CC[C@H]3[C@H]1C5`, which survivor count (dose: 64.0 mg/kg/injection) is on record?
Answer: 4 of 6
